Assay results published in US20140369940A1.
Results are given in words; binding and its absence hold for the method and conditions named. Some entries that bind do so weakly or less than the wild type.

Protein sequences, listed by entry. Tags and fused reporters are not part of them. Lines headed by an entry give the natural chain unless they say otherwise; changes in a name come on top.
UniProt Q16143: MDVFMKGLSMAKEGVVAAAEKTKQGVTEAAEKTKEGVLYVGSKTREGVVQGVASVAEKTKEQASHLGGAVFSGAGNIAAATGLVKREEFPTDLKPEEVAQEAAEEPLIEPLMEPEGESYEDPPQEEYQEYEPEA

How the values were obtained:
[1] = target: synthetic biotinylated α-synuclein peptide 1-30 (human); assay: in-solution ELISA
[2] = target: synthetic biotinylated α-synuclein peptide 4-30 (human); assay: in-solution ELISA
[3] = target: T1, human α-synuclein pepscan peptide A01 (residues 1-15) (human); assay: pepscan, immunoblotting
T1 sequence (peptide, C-terminally coupled via a flexible linker to cellulose membrane): MDVFMKGLSKAKEGV

[4] = target: synthetic biotinylated α-synuclein peptide 1-30 (human); assay: in-solution ELISA, antibody coated at 2 µg/ml, biotinylated peptide
[5] = target: synthetic biotinylated α-synuclein peptide 4-30 (human); assay: as above
[6] = target: T1, human α-synuclein pepscan peptide A01 (residues 1-15) (human); assay: pepscan
[7] = target: recombinant mutant β-synuclein M10K (human) (UniProt Q16143); assay: direct ELISA

Measured: binding

B1: recombinant human monoclonal antibody NI-202.12F4 (antibody, V domains shown)
VH: EVQLVQSGGGLVEPGGSLRLSCAVSGFDFEKAWMSWVRQAPGQGLQWVARIKSTADGGTTSYAAPVEGRFIISRDDSRNMLYLQMNSLKTEDTAVYYCTSAHWGQGTLVTVSS
VL: QSVLTQPPSVSVSPGQTARITCSGEALPMQFAHWYQQRPGKAPVIVVYKDSERPSGVPERFSGSSSGTTATLTITGVQAEDEADYYCQSPDSTNTYEVFGGGTKLTVL
binds: all assays above
